Reference: US9340600B2 (Indiana University Research and Technology Corporation, priority 2012, dated 2016)
Some entries share one result that the patent states for a list of compounds.

Tested on: DIO mice
Test: in vivo effects on body weight in DIO mice, subcutaneous administration
Settings: DIO mice without GLP-1 receptor knock-out, 10 nmol/kg s.c. 3 times per week, by Day 10; weight loss continued through Day 14

Question: “SEQ ID NO: 10: parent glucagon analog analyzed for chemical instability; Gln at position 3, ERAAQD at positions 16-21 [reference compound]” was tested. Which “decrease in body weight” value did it give?
Answer: The value was ≥ 10%.

Question: How did the “decrease in body weight” value turn out when “SEQ ID NO: 18: glucagon analog designed to enhance chemical stability; Gln at position 3, ERAAQE at positions 16-21” was run?
Answer: The value was ≥ 10%.

Question: “SEQ ID NO: 29: analog of SEQ ID NO: 18 with Glu at position 3” was tested. Which “decrease in body weight” value did it give?
Answer: The value was ≥ 10%.
